Results from the supplement of paper PMC4604168 (melanoma cell lines).
The other results are listed elsewhere or left out. Repeats are few or missing, and single values can be far off.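 Imaging used 1,536-well plates; nuclei positive for cleaved PARP by antibody were divided by total DNA-stained nuclei to yield the apoptosis fraction. Doses for screening kept most cells viable, and cell lines differ markedly in resting and induced cleaved-PARP levels.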

Experiments:
Assay in all cases: cleaved PARP positive nuclei fraction relative to DMSO control; melanoma cells; higher = more apoptosis
Conditions in all cases: library dose: low library concentration; 72 h
MZ2-MEL = system: MZ2-MEL
MeWo = system: MeWo
RPMI7951 = system: RPMI7951
RVH-421 = system: RVH-421
SkMel28 = system: SkMel28
SkMel2 = system: SkMel2
SkMel30 = system: SkMel30
SkMel5 = system: SkMel5
UACC257 = system: UACC257
UACC62 = system: UACC62

| Structure (SMILES) | cleaved PARP positive nuclei fraction (MZ2-MEL) [%] | cleaved PARP positive nuclei fraction (MeWo) [%] | cleaved PARP positive nuclei fraction (RPMI7951) [%] | cleaved PARP positive nuclei fraction (RVH-421) [%] | cleaved PARP positive nuclei fraction (SkMel28) [%] | cleaved PARP positive nuclei fraction (SkMel2) [%] | cleaved PARP positive nuclei fraction (SkMel30) [%] | cleaved PARP positive nuclei fraction (SkMel5) [%] | cleaved PARP positive nuclei fraction (UACC257) [%] | cleaved PARP positive nuclei fraction (UACC62) [%] |
| --- | --- | --- | --- | --- | --- | --- | --- | --- | --- | --- |
| C[C@@H](N)c1ccc(C(=O)Nc2ccnc3[nH]ccc23)cc1 + O=C(CCCCCCC(=O)Nc1ccccc1)NO [vorinostat] (first compound 0.4 µM, partner dose 0.08 µM) | 289 | 150 | 83.1 | 121 | 155 | 146 | 156 | 150 | 629 | 371 |
| CN(c1ncccc1CNc1nc(Nc2ccc3c(c2)CC(=O)N3)ncc1C(F)(F)F)S(C)(=O)=O + Cc1ccc(NC(=O)c2cccc(N(C)C)c2)cc1NC(=O)c1ccc(O)cc1 [ZM336372] (first compound 0.08 µM, partner dose 2 µM) | 195 | 94.7 | 252 | 234 | 40.3 | 70.4 | 80.8 | 125 | 98.3 | 71.7 |
| CC(=O)O[C@@]12CO[C@@H]1C[C@H](O)[C@@]1(C)C(=O)[C@H](O)C3=C(C)[C@@H](OC(=O)[C@H](O)[C@@H](NC(=O)OC(C)(C)C)c4ccccc4)C[C@@](O)([C@@H](OC(=O)c4ccccc4)[C@H]21)C3(C)C [Docetaxel] + CC(C)(C)c1cnc(CSc2cnc(NC(=O)C3CCNCC3)s2)o1 [SNS-032] (first compound 0.0001 µM, partner dose 0.01 µM) | 490 | 91.8 | 222 | 81.4 | 185 | 1020 | 160 | 165 | 652 | 129 |
| CN(c1ncccc1CNc1nc(Nc2ccc3c(c2)CC(=O)N3)ncc1C(F)(F)F)S(C)(=O)=O + O=S(=O)(c1ccccc1)N(CC(F)(F)F)c1ccc(C(O)(C(F)(F)F)C(F)(F)F)cc1 [T0901317] (first compound 0.08 µM, partner dose 1.4 µM) | 47.9 | 45.2 | 68 | 39.9 | 107 | 97.7 | 179 | 107 | 130 | 125 |
| CC(=O)O[C@@]12CO[C@@H]1C[C@H](O)[C@@]1(C)C(=O)[C@H](O)C3=C(C)[C@@H](OC(=O)[C@H](O)[C@@H](NC(=O)OC(C)(C)C)c4ccccc4)C[C@@](O)([C@@H](OC(=O)c4ccccc4)[C@H]21)C3(C)C [Docetaxel] + Cn1cc(/C=C2\C(=O)Nc3cccnc32)c2ccccc21 [GW441756] (first compound 0.0001 µM, partner dose 0.4 µM) | 703 | 809 | 236 | 164 | 706 | 589 | 321 | 97.3 | 469 | 444 |
| C[C@@H](N)c1ccc(C(=O)Nc2ccnc3[nH]ccc23)cc1 + COc1cc(Nc2ncc(F)c(Nc3ccc4c(n3)NC(=O)C(C)(C)O4)n2)cc(OC)c1OC [Tamatinib] (first compound 0.4 µM, partner dose 0.4 µM) | 219 | 206 | 104 | 38 | 215 | 135 | 54.6 | 419 | 80.2 | 175 |
| C[C@]1(O)C[C@@H](c2nc(-c3ccc4ccc(-c5ccccc5)nc4c3)c3c(N)nccn32)C1 + CC1(C)NC(=O)N(c2ccc([N+](=O)[O-])c(C(F)(F)F)c2)C1=O [nilutamide] (first compound 0.4 µM, partner dose 1 µM) | 123 | 146 | 65.7 | 249 | 59.5 | 347 | 45.1 | 133 | 43.2 | 66.2 |
| CC(=O)O[C@@]12CO[C@@H]1C[C@H](O)[C@@]1(C)C(=O)[C@H](O)C3=C(C)[C@@H](OC(=O)[C@H](O)[C@@H](NC(=O)OC(C)(C)C)c4ccccc4)C[C@@](O)([C@@H](OC(=O)c4ccccc4)[C@H]21)C3(C)C [Docetaxel] + COc1ccc(COc2ccc(Cc3cnc(N)nc3N)cc2OC)cc1 [GW2580] (first compound 0.0001 µM, partner dose 1 µM) | 905 | 589 | 164 | 128 | 242 | 605 | 292 | 511 | 1000 | 324 |
| CN(c1ncccc1CNc1nc(Nc2ccc3c(c2)CC(=O)N3)ncc1C(F)(F)F)S(C)(=O)=O + NCC(=O)Nc1ccc(-n2nc(C(F)(F)F)cc2-c2ccc3c(ccc4ccccc43)c2)cc1 [OSU03012] (first compound 0.08 µM, partner dose 1 µM) | 160 | 271 | 95.2 | 176 | 381 | 74.2 | 108 | 456 | 278 | 189 |
| C[C@@H](N)c1ccc(C(=O)Nc2ccnc3[nH]ccc23)cc1 + CC1(C)NC(=O)N(c2ccc([N+](=O)[O-])c(C(F)(F)F)c2)C1=O [nilutamide] (first compound 0.4 µM, partner dose 1 µM) | 144 | 217 | 233 | 56.7 | 244 | 46.4 | 54.9 | 165 | 97.8 | 76.9 |
| CS(=O)(=O)c1ccc(C(=O)Nc2ccc(Cl)c(-c3ccccn3)c2)c(Cl)c1 [vismodegib] + Cn1cc(/C=C2\C(=O)Nc3cccnc32)c2ccccc21 [GW441756] (first compound 1 µM, partner dose 0.4 µM) | 70.2 | 19.7 | 136 | 54.5 | 67.2 | 41.3 | 188 | 94.2 | 226 | 106 |
| CC(=O)O[C@@]12CO[C@@H]1C[C@H](O)[C@@]1(C)C(=O)[C@H](O)C3=C(C)[C@@H](OC(=O)[C@H](O)[C@@H](NC(=O)OC(C)(C)C)c4ccccc4)C[C@@](O)([C@@H](OC(=O)c4ccccc4)[C@H]21)C3(C)C [Docetaxel] + CC(C)CCN1c2nc(Nc3cc(F)c(O)c(F)c3)ncc2N(C)C(=O)C1C [BID1870] (first compound 0.0001 µM, partner dose 0.2 µM) | 1410 | 263 | 96.3 | 146 | 1220 | 235 | 107 | 101 | 1580 | 640 |
| Cn1sc(=O)n(Cc2ccccc2)c1=O + NC(=O)Nc1cc(-c2cccc(F)c2)sc1C(=O)N[C@H]1CCCNC1 [AZD7762] (first compound 0.4 µM, partner dose 0.02 µM) | 151 | 117 | 116 | 166 | 47.1 | 103 | 76 | 43.2 | 130 | 46.8 |
| CCCCCCCCc1ccc(CCC(N)(CO)CO)cc1 [fingolimod] + NC(=O)Nc1cc(-c2cccc(F)c2)sc1C(=O)N[C@H]1CCCNC1 [AZD7762] (first compound 2 µM, partner dose 0.02 µM) | 159 | 89.9 | 187 | 174 | 139 | 108 | 82.2 | 135 | 27.3 | 141 |
| NC1(c2ccc(-c3nc4ccn5c(=O)[nH]nc5c4cc3-c3ccccc3)cc2)CCC1 + COc1cc(Nc2ncc(F)c(Nc3ccc4c(n3)NC(=O)C(C)(C)O4)n2)cc(OC)c1OC [Tamatinib] (first compound 0.4 µM, partner dose 0.4 µM) | 136 | 56.5 | 200 | 220 | 265 | 94.3 | 83.2 | 78.7 | 436 | 325 |
| CC(=O)O[C@@]12CO[C@@H]1C[C@H](O)[C@@]1(C)C(=O)[C@H](O)C3=C(C)[C@@H](OC(=O)[C@H](O)[C@@H](NC(=O)OC(C)(C)C)c4ccccc4)C[C@@](O)([C@@H](OC(=O)c4ccccc4)[C@H]21)C3(C)C [Docetaxel] + COc1cc(N2CCC(N3CCN(C)CC3)CC2)ccc1Nc1ncc(Cl)c(Nc2ccccc2S(=O)(=O)C(C)C)n1 [NVP-TAE684] (first compound 0.0001 µM, partner dose 0.08 µM) | 587 | 492 | 191 | 348 | 1130 | 644 | 113 | 190 | 859 | 521 |
| CCN(CC)CCNC(=O)c1c(C)[nH]c(/C=C2\C(=O)Nc3ccc(F)cc32)c1C [sunitinib] + O=C(CCCCCCC(=O)Nc1ccccc1)NO [vorinostat] (first compound 0.4 µM, partner dose 0.08 µM) | 69.5 | 112 | 81.2 | 69.9 | 65.1 | 51.6 | 83.8 | 137 | 248 | 86.4 |
| CC(=O)O[C@@]12CO[C@@H]1C[C@H](O)[C@@]1(C)C(=O)[C@H](O)C3=C(C)[C@@H](OC(=O)[C@H](O)[C@@H](NC(=O)OC(C)(C)C)c4ccccc4)C[C@@](O)([C@@H](OC(=O)c4ccccc4)[C@H]21)C3(C)C [Docetaxel] + Oc1nc(-c2ccc(C(F)(F)F)cc2)nc2c1CSCC2 [XAV939] (first compound 0.0001 µM, partner dose 2 µM) | 321 | 169 | 805 | 178 | 628 | 747 | 257 | 103 | 291 | 689 |
| CC(=O)O[C@@]12CO[C@@H]1C[C@H](O)[C@@]1(C)C(=O)[C@H](O)C3=C(C)[C@@H](OC(=O)[C@H](O)[C@@H](NC(=O)OC(C)(C)C)c4ccccc4)C[C@@](O)([C@@H](OC(=O)c4ccccc4)[C@H]21)C3(C)C [Docetaxel] + COC(=O)c1sccc1S(=O)(=O)Nc1ccc(Nc2ccccc2)cc1OC [GSK0660] (first compound 0.0001 µM, partner dose 1 µM) | 677 | 424 | 83.6 | 75.7 | 137 | 454 | 256 | 24 | 64.2 | 1420 |
| CC1(C)CCC(c2ccc(Cl)cc2)=C(CN2CCN(c3ccc(C(=O)NS(=O)(=O)c4ccc(N[C@H](CCN5CCOCC5)CSc5ccccc5)c(S(=O)(=O)C(F)(F)F)c4)cc3)CC2)C1 + CCCCCCCCCCCC1=C(O)C(=O)C=C(O)C1=O [Embelin] (first compound 0.4 µM, partner dose 1.2 µM) | 248 | 322 | 61.2 | 74 | 80.4 | 182 | 47.7 | 329 | 79.1 | 149 |

2 entries picked at random from those above:

| Structure (SMILES) | cleaved PARP positive nuclei fraction (MZ2-MEL) [%] | cleaved PARP positive nuclei fraction (MeWo) [%] | cleaved PARP positive nuclei fraction (RPMI7951) [%] | cleaved PARP positive nuclei fraction (RVH-421) [%] | cleaved PARP positive nuclei fraction (SkMel28) [%] | cleaved PARP positive nuclei fraction (SkMel2) [%] | cleaved PARP positive nuclei fraction (SkMel30) [%] | cleaved PARP positive nuclei fraction (SkMel5) [%] | cleaved PARP positive nuclei fraction (UACC257) [%] | cleaved PARP positive nuclei fraction (UACC62) [%] |
| --- | --- | --- | --- | --- | --- | --- | --- | --- | --- | --- |
| CC1(C)CCC(c2ccc(Cl)cc2)=C(CN2CCN(c3ccc(C(=O)NS(=O)(=O)c4ccc(N[C@H](CCN5CCOCC5)CSc5ccccc5)c(S(=O)(=O)C(F)(F)F)c4)cc3)CC2)C1 + CCCCCCCCCCCC1=C(O)C(=O)C=C(O)C1=O [Embelin] (first compound 0.4 µM, partner dose 1.2 µM) | 248 | 322 | 61.2 | 74 | 80.4 | 182 | 47.7 | 329 | 79.1 | 149 |
| CS(=O)(=O)c1ccc(C(=O)Nc2ccc(Cl)c(-c3ccccn3)c2)c(Cl)c1 [vismodegib] + Cn1cc(/C=C2\C(=O)Nc3cccnc32)c2ccccc21 [GW441756] (first compound 1 µM, partner dose 0.4 µM) | 70.2 | 19.7 | 136 | 54.5 | 67.2 | 41.3 | 188 | 94.2 | 226 | 106 |
